Measured values published in article PMC7202670.
These are yes or no findings as the source states them, for the method shown. Binding seen in cells or lysates may run through a third protein. Some results given as binding are weak or reduced against the parent protein; the word gives no strength. For some assays here: Where a sequence is shown, tags or fusion partners need not be part of it. Each block holds one molecule with its values, some of them ahead of it.

The chains behind the UniProt entries cited, without tags or fusion partners. Residues count along the entry.
UniProt Q13586, residues 23-685: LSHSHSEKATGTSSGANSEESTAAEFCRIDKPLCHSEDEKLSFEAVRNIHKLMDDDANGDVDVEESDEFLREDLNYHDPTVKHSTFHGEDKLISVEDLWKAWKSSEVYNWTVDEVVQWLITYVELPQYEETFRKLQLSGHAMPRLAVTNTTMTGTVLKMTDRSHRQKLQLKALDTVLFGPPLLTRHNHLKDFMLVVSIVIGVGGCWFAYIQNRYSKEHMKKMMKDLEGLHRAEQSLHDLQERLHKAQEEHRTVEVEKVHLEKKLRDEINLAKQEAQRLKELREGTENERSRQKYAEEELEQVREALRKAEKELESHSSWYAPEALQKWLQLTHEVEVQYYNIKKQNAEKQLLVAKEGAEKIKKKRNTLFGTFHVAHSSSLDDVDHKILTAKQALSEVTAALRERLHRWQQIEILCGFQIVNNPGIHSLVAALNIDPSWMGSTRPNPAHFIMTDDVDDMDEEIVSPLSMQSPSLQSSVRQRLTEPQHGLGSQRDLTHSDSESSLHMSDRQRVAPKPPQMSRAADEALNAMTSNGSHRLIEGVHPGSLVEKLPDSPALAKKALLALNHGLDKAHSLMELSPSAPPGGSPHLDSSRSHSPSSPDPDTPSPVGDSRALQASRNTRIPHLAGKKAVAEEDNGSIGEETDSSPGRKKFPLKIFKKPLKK
UniProt P70302, residues 23-685: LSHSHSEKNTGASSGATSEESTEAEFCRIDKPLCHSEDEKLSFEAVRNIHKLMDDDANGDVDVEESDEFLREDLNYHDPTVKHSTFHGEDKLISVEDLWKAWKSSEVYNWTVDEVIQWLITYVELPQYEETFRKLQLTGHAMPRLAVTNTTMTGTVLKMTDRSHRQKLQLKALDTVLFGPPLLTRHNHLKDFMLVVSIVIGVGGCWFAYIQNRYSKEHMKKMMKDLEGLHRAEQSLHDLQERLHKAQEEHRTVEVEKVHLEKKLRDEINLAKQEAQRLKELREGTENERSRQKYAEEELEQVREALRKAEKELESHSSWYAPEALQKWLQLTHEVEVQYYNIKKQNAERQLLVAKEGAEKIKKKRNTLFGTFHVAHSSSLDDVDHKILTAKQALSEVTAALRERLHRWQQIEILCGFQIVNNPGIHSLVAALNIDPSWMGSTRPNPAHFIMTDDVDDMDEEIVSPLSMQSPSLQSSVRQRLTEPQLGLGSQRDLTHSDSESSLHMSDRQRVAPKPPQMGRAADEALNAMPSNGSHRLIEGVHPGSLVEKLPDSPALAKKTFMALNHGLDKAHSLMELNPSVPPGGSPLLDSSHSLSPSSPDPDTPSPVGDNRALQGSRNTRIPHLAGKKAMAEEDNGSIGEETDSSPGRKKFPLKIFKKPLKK

Experiments:
myc-TRIC-A (mouse) = biological target: T1, myc-TRIC-A (mouse) (UniProt Q3TMP8); experiment: co-IP; Pierce anti-c-myc magnetic beads; lysates (Pierce IP lysis buffer) of transfected HEK293 cells, basal or ER-depleted (100 uM CCh + 30 uM BHQ); western blot
T1 sequence: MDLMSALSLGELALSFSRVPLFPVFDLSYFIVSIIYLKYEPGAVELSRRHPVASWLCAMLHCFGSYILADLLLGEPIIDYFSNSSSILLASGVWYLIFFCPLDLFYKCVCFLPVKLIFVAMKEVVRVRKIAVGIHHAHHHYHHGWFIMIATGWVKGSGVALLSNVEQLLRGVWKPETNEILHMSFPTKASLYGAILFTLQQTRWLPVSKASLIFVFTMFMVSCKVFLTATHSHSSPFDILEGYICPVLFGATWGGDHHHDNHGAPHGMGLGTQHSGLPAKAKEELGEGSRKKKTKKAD

STIM1-myc = STIM1-myc (UniProt Q13586); experiment: as above
[1] = biological target: endogenous STIM1 (murine skeletal muscle) (mouse (endogenous in skeletal muscle)) (UniProt P70302); experiment: co-IP; STIM1 antibody (BD Biosciences) and Protein A agarose, overnight at 4 C; lysates of murine hind limb skeletal muscle (1% Nonidet P-40, 50 mM Tris-HCl, 150 mM NaCl, 2 mM EDTA, 5% glycerol, pH 8), basal or SR-depleted (30 mM caffeine + 30 uM BHQ); western blot
STIM1-YFP = STIM1-YFP (UniProt Q13586); experiment: FRET or BRET; normalized FRET (N_FRET, pixFRET) from epifluorescence images of HEK293 cells transfected with CFP/YFP fusion constructs; basal, or ER-depleted with 100 uM CCh + 30 uM BHQ (STIM1-YFP with Orai1-CFP, with or without coexpressed TRIC-A)

B1: TRIC-A-mCherry (protein, UniProt Q3TMP8 1-298)
chain: MDLMSALSLGELALSFSRVPLFPVFDLSYFIVSIIYLKYEPGAVELSRRHPVASWLCAMLHCFGSYILADLLLGEPIIDYFSNSSSILLASGVWYLIFFCPLDLFYKCVCFLPVKLIFVAMKEVVRVRKIAVGIHHAHHHYHHGWFIMIATGWVKGSGVALLSNVEQLLRGVWKPETNEILHMSFPTKASLYGAILFTLQQTRWLPVSKASLIFVFTMFMVSCKVFLTATHSHSSPFDILEGYICPVLFGATWGGDHHHDNHGAPHGMGLGTQHSGLPAKAKEELGEGSRKKKTKKAD
- binding (STIM1-myc): binds

B3: TRIC-A-CFP (protein, UniProt Q3TMP8 1-298)
chain: MDLMSALSLGELALSFSRVPLFPVFDLSYFIVSIIYLKYEPGAVELSRRHPVASWLCAMLHCFGSYILADLLLGEPIIDYFSNSSSILLASGVWYLIFFCPLDLFYKCVCFLPVKLIFVAMKEVVRVRKIAVGIHHAHHHYHHGWFIMIATGWVKGSGVALLSNVEQLLRGVWKPETNEILHMSFPTKASLYGAILFTLQQTRWLPVSKASLIFVFTMFMVSCKVFLTATHSHSSPFDILEGYICPVLFGATWGGDHHHDNHGAPHGMGLGTQHSGLPAKAKEELGEGSRKKKTKKAD
- binding (STIM1-YFP): binds

The next lines start with the values.

- binding (myc-TRIC-A (mouse)): binds
Molecule: endogenous STIM1 (HEK293) (from UniProt Q13586 23-685)

- binding [1]: binds
B2: endogenous TRIC-A (murine skeletal muscle) (protein, UniProt Q3TMP8 1-298)
chain: MDLMSALSLGELALSFSRVPLFPVFDLSYFIVSIIYLKYEPGAVELSRRHPVASWLCAMLHCFGSYILADLLLGEPIIDYFSNSSSILLASGVWYLIFFCPLDLFYKCVCFLPVKLIFVAMKEVVRVRKIAVGIHHAHHHYHHGWFIMIATGWVKGSGVALLSNVEQLLRGVWKPETNEILHMSFPTKASLYGAILFTLQQTRWLPVSKASLIFVFTMFMVSCKVFLTATHSHSSPFDILEGYICPVLFGATWGGDHHHDNHGAPHGMGLGTQHSGLPAKAKEELGEGSRKKKTKKAD

- binding (STIM1-myc): binds
B4: endogenous TRIC-B (protein, UniProt Q9NVV0 1-291)
chain: MDSPWDELALAFSRTSMFPFFDIAHYLVSVMAVKRQPGAAALAWKNPISSWFTAMLHCFGGGILSCLLLAEPPLKFLANHTNILLASSIWYITFFCPHDLVSQGYSYLPVQLLASGMKEVTRTWKIVGGVTHANSYYKNGWIVMIAIGWARGAGGTIITNFERLVKGDWKPEGDEWLKMSYPAKVTLLGSVIFTFQHTQHLAISKHNLMFLYTIFIVATKITMMTTQTSTMTFAPFEDTLSWMLFGWQQPFSSCEKKSEAKSPSNGVGSLASKPVDVASDNVKKKHTKKNE
